Test results taken from paper PMC8658989 (Molecules, 2021).
Some peptides are written in HELM: one residue between dots, names in brackets for other building blocks, links after the first $.

Experiment: general procedure: Fmoc solid-phase peptide synthesis; Rink amide MBHA resin; HBTU, DIC or PyBOP (HOBt/DIEA)
Details: whole synthesis

Row | Substance | crude HPLC purity [%]
1 | Caf-(KLβ-AKLβ-AK)2-NH2 | 100
2 | PEPTIDE1{[Caf].K.L.A.K.L.A.K.K.L.A.K.L.A.K.[am]}$$$$V2.0 | 98
3 | 1,8-NphtG-(KLAKLAK)2-NH2 | 96
